# Test results reported in patent US20220120732A1, “TREATMENT OF DISEASES WITH MULTIMERIC PEPTIDES” (Ramot at Tel-Aviv University Ltd., priority 2019, published 2022).
# At least one peptide structure holds a part that was inferred or is arguable (an end, a ring closure or a residue). Bridges are numbered along the chain shown (N, C = ends). Roman numbers before positions name the chains, in order. Where no end group is shown, it is not given here.
# What was measured:
# [1] = test system: MCF7, MDAMB231 and MDAMB468 cells; assay: Tumor cell density, breast cancer cell lines incubated with PBMC and C24D; format: cell-based, human; conditions: C24D 10 μg/ml; 4-6 days after tumor incubation with PBMC of healthy female donors
# [2] = test system: tumor cells derived from patient's biopsies; assay: Tumor cell density, patient-derived tumor cells with autologous PBMC and C24D; format: cell-based, human; conditions: autologous leucocytes of breast cancer patients; FIGS. 4A-B
# MCF7 = assay: Tumor cell apoptosis analysis (AnnexinV/PI); format: cell-based, human; conditions: with PBMC, days 4-6, adherent tumor cells
# MDAMB468 = assay: Tumor cell apoptosis analysis (AnnexinV/PI); format: cell-based, human; conditions: with PBMC, days 4-6, adherent tumor cells
# MDAMB231 = assay: Tumor cell apoptosis analysis (AnnexinV/PI); format: cell-based, human; conditions: with PBMC, days 4-6, adherent tumor cells
# [3] = test system: PBMC incubated on MDAMB231; assay: Interferon gamma secretion ELISA; format: cell-based, human; conditions: PBMC incubated on MDAMB231, 4-6 days, vs without C24D
# PBMC incubated on MCF7 = assay: Interferon gamma secretion ELISA; format: cell-based, human; conditions: PBMC incubated on MCF7, 4-6 days, vs without C24D
# [4] = test system: PBMC incubated on MDAMB468; assay: Interferon gamma secretion ELISA; format: cell-based, human; conditions: PBMC incubated on MDAMB468, 4-6 days, vs without C24D
# PBMC sub-populations = assay: C24D binding to fresh isolated PBMC sub-populations (FACS, FITC labeled peptide); design: species or system human; conditions: mononuclear cells from eight female donors
# [5] = test system: T and NK cell sub-populations; assay: C24D binding to activated lymphocyte sub-populations (FACS); design: species or system human; conditions: PBMC from 5 donors exposed to tumor cell lines, 4-6 days
# CD45 = assay: Identification of C24D binding receptor on PBMC (biotinylated peptide precipitation, mass spectrometry); design: species or system Homo sapiens; conditions: PBMC lysates of two donors, streptavidin beads
# [6] = test system: FADU, Cal 33 and A 431 cells; assay: Tumor cell density, head and neck cancer cell lines incubated with PBMC and C24D; format: cell-based, human; conditions: C24D 1 or 10 μg/ml; 24-48 hours after tumor incubation with PBMC of healthy donors
# [7] = test system: lymphocytes incubated with Cal33 and FADU cells; assay: Interferon gamma secretion ELISA, head and neck tumor cells; format: cell-based, human; conditions: C24D 10 μg/ml, 2-3 days; FIG. 15
# [8] = test system: PBMC co-cultured with A431 head and neck tumor cells; assay: FACS analysis of activated PBMC sub-populations by C24D; format: cell-based, human
# Lck Y505 = assay: CD45 signal transduction determination, Western blot (Example 3); format: cell-based, human
# ZAP70 Y493 [9] = assay: as above; format: cell-based, human
# CD45 receptor = target: T1, CD45 receptor (Homo sapiens, UniProt P08575); assay: Blocking of CD45 receptor, interferon gamma secretion; format: cell-based; conditions: blocking of CD45 receptor prevents C24D binding; FIG. 20
# T1 construct: endogenous in cells; host or cells: PBMC co-cultured with tumor cells
# T1 sequence (P08575 26-1306): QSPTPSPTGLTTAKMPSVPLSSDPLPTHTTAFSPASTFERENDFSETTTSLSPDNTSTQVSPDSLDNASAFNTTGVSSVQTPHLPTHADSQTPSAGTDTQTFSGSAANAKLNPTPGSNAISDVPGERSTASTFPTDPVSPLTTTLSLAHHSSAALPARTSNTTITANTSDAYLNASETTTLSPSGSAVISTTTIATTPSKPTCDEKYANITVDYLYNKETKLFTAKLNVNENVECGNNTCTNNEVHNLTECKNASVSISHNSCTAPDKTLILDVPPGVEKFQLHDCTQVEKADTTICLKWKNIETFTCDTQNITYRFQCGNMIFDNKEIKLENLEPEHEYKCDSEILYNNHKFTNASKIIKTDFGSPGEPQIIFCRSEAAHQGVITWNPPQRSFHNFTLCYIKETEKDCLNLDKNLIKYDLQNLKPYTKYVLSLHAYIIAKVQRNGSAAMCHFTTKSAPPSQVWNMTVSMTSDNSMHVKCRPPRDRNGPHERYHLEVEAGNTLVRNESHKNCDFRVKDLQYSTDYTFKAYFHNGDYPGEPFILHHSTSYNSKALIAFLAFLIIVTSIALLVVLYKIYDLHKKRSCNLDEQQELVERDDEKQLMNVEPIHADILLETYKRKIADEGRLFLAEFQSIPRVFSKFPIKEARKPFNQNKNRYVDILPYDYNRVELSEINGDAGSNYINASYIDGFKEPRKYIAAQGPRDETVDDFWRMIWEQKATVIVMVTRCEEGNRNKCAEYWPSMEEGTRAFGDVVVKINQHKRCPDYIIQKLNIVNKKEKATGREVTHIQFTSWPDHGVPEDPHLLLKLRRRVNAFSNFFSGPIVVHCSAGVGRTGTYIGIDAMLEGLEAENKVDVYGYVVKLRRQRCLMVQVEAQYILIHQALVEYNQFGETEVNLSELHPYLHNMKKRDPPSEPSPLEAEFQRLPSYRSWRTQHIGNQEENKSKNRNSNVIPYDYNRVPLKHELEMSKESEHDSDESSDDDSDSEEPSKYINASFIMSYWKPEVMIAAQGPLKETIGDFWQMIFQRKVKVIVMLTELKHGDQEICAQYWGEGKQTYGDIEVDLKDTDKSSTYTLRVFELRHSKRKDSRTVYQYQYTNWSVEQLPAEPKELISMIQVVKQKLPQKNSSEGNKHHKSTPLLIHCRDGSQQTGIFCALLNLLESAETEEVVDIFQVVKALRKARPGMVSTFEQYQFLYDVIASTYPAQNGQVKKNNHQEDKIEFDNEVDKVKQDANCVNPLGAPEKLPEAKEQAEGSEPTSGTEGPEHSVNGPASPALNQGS
# Lck Y394 = assay: CD45 signal transduction determination, Western blot (Example 4); format: cell-based, human; conditions: PBMCs co-cultured with MDA-MB-231; 30 minutes after C24D 10 μg/ml; % of maximal; control 49.7±8.1
# ZAP70 Y493 [10] = assay: as above; format: cell-based, human; conditions: PBMCs co-cultured with MDA-MB-231; five minutes after C24D 10 μg/ml; % of maximal; control 59.5±5.3
# VAV1 = assay: as above; format: cell-based, human; conditions: PBMCs co-cultured with MDA-MB-231; 30 minutes after C24D 10 μg/ml; % of maximal; control 29.3±3.1
# [11] = PBMCs from healthy donors, FIG. 19
substance,measurement,setting,value
I: CGHHLLRPRRRKRPHSIPTPILIFRSP / II: CGHHLLRPRRRKRPHSIPTPILIFRSP (disulfide I:1-II:1) [C24D],tumor cell killing,[1],induced tumor cell killing
same,density of tumor cells derived from patient's biopsies,[2],reduced the density of tumor cells
same,Early Apoptosis (Annexin V positive cells),MCF7,9.2 ± 2.3
same,Total Apoptosis,MCF7; 7 experiments,23.48 ± 3.4
same,Early Apoptosis (Annexin V positive cells),MDAMB468,10.1 ± 3
same,Total Apoptosis,MDAMB468; 7 experiments,18.68 ± 3.1
same,Total Apoptosis,MDAMB231; 7 experiments,13.53 ± 2.1
same,Early Apoptosis (Annexin V positive cells),MDAMB231; p < 0.05,6.1 ± 1.5
same,increase of IFNγ secretion,[3],9.7 fold
same,increase of IFNγ secretion,PBMC incubated on MCF7,4.2 fold
same,increase of IFNγ secretion,[4],2.3 fold
same,C24D binding to fresh isolated PBMC,PBMC sub-populations,bound to all PBMC sub-populations
same,C24D binding to activated lymphocytes sub-populations,[5],binds T and NK cell sub-populations at different levels
same,C24D binding receptor identified,CD45,CD45
same,tumor cell killing,[6],induced tumor cell killing
same,IFNγ secretion,[7],increased IFNγ secretion
same,activation of T (CD8+) and NK (CD56+) cells,"[8]; C24D 10 μg/ml, PBMC from healthy donors co-cultured with A431",induced the activation of T and NK cells
same,percentage of CD8+/CD69+ cells and CD56+/CD69+ cells,"[8]; two different experiments, FIG. 16",increase in the percentage of CD8+/CD69+ cells and CD56+/CD69+ cells
same,activation of Lck,Lck Y505; [11],failed to activate
same,Lck Y505 de-phosphorylation,"Lck Y505; PBMCs of metastatic breast cancer patients (p<0.02), FIG. 18",significant Lck Y505 de-phosphorylation
same,Lck Y505 phosphorylation,"Lck Y505; tumor cells and PBMCs, C24D for 30 and 60 minutes (p<0.0001 and p<0.02), FIG. 17",reduced Lck Y505 phosphorylation significantly
same,activation of Zap70,ZAP70 Y493 [9]; [11],failed to activate
same,Zap70 Y493 phosphorylation,"ZAP70 Y493 [9]; PBMCs of metastatic breast cancer patients, 5 to 30 minutes after peptide addition (p<0.05), FIG. 18",significantly phosphorylated
same,phosphorylation of the Y493 in Zap70,"ZAP70 Y493 [9]; tumor cells and PBMCs, C24D 10 μg/ml (p<0.0008), FIG. 17",significant phosphorylation of the Y493 in Zap70
same,IFNγ secretion when CD45 receptor is blocked,CD45 receptor,inhibition of IFNγ secretion
same,phosphorylation of the Y394 in the Lck,Lck Y394,77.3±5.7%
same,phosphorylation of the Y493 in Zap70,ZAP70 Y493 [10],94.2±3.2%
same,phosphorylation of VAV1,VAV1,80.9±5.2%
